Assay [1] deals with T1, recombinant human bone morphogenetic protein 2 (human) (UniProt P12643).
T1 sequence: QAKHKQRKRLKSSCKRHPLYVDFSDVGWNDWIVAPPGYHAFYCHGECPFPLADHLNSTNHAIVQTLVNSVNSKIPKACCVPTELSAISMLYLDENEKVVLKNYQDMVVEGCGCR
Kind of assay: quartz crystal microbalance (QCM); [Ca^2+]H/rhBMP-2 (50 ug/mL rhBMP-2 with 18.0 mM Ca^2+ in PBS) preadsorbed on the chip sensor, then 10 ug/mL receptor monitored for 100 min; 25.0 C; delta f at 25 MHz; both purified.

The target in assay [2] is T1, recombinant human bone morphogenetic protein 2 (human). Nature of the assay: quartz crystal microbalance (QCM); [Ca^2+]L/rhBMP-2 (50 ug/mL rhBMP-2 with 0.18 mM Ca^2+ in PBS) preadsorbed on the chip sensor, then 10 ug/mL receptor monitored for 100 min; 25.0 C; delta f at 25 MHz; both purified.

These are yes or no findings as the source states them, for the method shown. Some results given as binding are weak or reduced against the parent protein; the word gives no strength.

B1: BMPR-IB (receptor, UniProt O00238 14-126)
chain: KKEDGESTAPTPRPKVLRCKCHHHCPEDSVNNICSTDGYCFTMIEEDDSGLPVVTSGCLGLEGSDFQCRDTPIPHQRRSIECCTERNECNKDLHPTLPPLKNRDFVDGPIHHR
Regarding B1, the binding entry in assay [1] and in assay [2] was “binds” each time.

(Values after PMC4515877.)
